Results deposited as PubChem BioAssay AID1259405 (NCATS, 2018)
Test: 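Knock-downs that lift recombinant protein yield in hamster ovary cells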 (primary screen). System: Chinese hamster CHO-K1 ovary cells with stable secreted eGFP expression. Knock-down reagent: single siRNA against mouse genes, 0.8 pmol siRNA per well (2 µl of 400 nM stock). Duration: 3 days. Measurement: 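Percent of the per-plate non-targeting control median for intracellular GFP per well by laser scanning cytometry and for cell viability by ATP luminescence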. Reading the numbers: GFP, % of control: higher = more GFP per well, higher productivity; viability (ATP), % of control: higher = more viable cells (more ATP). Active means: 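a knock-down is called active if GFP reaches 120% or more of non-targeting control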.
In all, the deposit lists about 50,000 reagents; below is a part drawn at random. Over the whole deposit, about 4,000 (8%) got an active call. 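Mouse siRNA library applied to hamster cells; one well for each siRNA.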 Unmarked entries are inactive. Reagents against one gene are numbered here.

target | reagent | GFP, % of control | viability (ATP), % of control
Orc4 | 1 | 57.2 | 43
Orc4 | 2 | 82.9 | 83.8
Or5d40 | 1 | 101 | 70.9
Or5d40 | 2 | 59.8 | 80.9
Or5d40 | 3 | 68.7 | 71.6
Or1j13 | 1 | 91.3 | 94
Or1j13 | 2 | 79.9 | 78.9
Or1j13 | 3 | 42.5 | 73.4
Tek | 1 | 79.7 | 56.7
Tek | 2 | 87.7 | 69.8
Tek | 3 | 63.2 | 52.9
Mettl4 | 1 | 67.3 | 88.9
Mettl4 | 2 | 105 | 65.1
Mettl4 | 3 | 86.8 | 67.8
Ruvbl2 | 1 | 46.1 | 42.8
Ruvbl2 | 2 | 73.3 | 41.9
Ruvbl2 | 3 | 52.4 | 44.5
Lrp2bp | 1 | 98.2 | 62.1
Lrp2bp | 2 | 50.9 | 65.1
Lrp2bp | 3 | 70.9 | 76.3
S100a8 | 1 | 71.1 | 84.4
S100a8 | 2 | 63 | 75.4
Col5a2 | 1 | 59.5 | 50.8
Col5a2 | 2 | 108 | 101
Col5a2 | 3 | 56.3 | 61.4
D130079A08Rik | 1 | 76.9 | 100
D130079A08Rik | 2 | 94.7 | 80.2
D130079A08Rik | 3 | 72 | 72.7
Bcl9l | 1 | 90.6 | 75.7
Bcl9l | 2 | 66.7 | 94.7
Bcl9l | 3 | 162 (active) | 147
Apoa4 | 1 | 107 | 93.4
Apoa4 | 2 | 106 | 113
Apoa4 | 3 | 116 | 83.6
Nek8 | 1 | 43.1 | 57.4
Slfn3 | 1 | 55.9 | 44.4
Slfn3 | 2 | 46.6 | 69.6
Slfn3 | 3 | 63.2 | 69.3

Taken from above:
For “viability (ATP), % of control”, Ruvbl2 #1 shows 42.8
Result of Mettl4 #3 in “viability (ATP), % of control”: 67.8
Orc4 #1, viability (ATP), % of control: 43
Under “viability (ATP), % of control”, Tek #1 reads 56.7
Entry of Slfn3 #3 in “viability (ATP), % of control”: 69.3
Tek #3, GFP, % of control → 63.2

Further reagents:
target | reagent | GFP, % of control | viability (ATP), % of control
Septin9 | 1 | 48.6 | 49.9
Septin9 | 2 | 58.1 | 49.5
Septin9 | 3 | 123 (active) | 59.2
Sh3bp1 | 1 | 92.9 | 80.1
Sh3bp1 | 2 | 101 | 82
Sh3bp1 | 3 | 44 | 40.2
Cdc42bpb | 1 | 77.9 | 74.6
Prb1b | 1 | 79.1 | 99.1
Prb1b | 2 | 77.8 | 64.2
Prb1b | 3 | 64.4 | 81.8
Ddx19a | 1 | 71.6 | 77.4
Ddx19a | 2 | 61.5 | 65.3
Ddx19a | 3 | 104 | 92.1
Il36rn | 1 | 59.7 | 63.8
Il36rn | 2 | 75.7 | 87.1
Il36rn | 3 | 69.9 | 51.3
Fan1 | 1 | 103 | 74.9
Fan1 | 2 | 76.4 | 92.9
Fan1 | 3 | 84.7 | 93.5
Tecrl | 1 | 68.3 | 97.9
Tecrl | 2 | 75.7 | 88.8
Tecrl | 3 | 198 (active) | 168
Ccr1l1 | 1 | 67.8 | 46.6
Ccr1l1 | 2 | 107 | 105
Ccr1l1 | 3 | 60.8 | 69.2
Ibtk | 1 | 83.2 | 50.9
Ibtk | 2 | 59.4 | 71.5
Ibtk | 3 | 78.3 | 59.6
Tmem145 | 1 | 124 (active) | 77.5
Tmem145 | 2 | 92.6 | 71.1
Tmem145 | 3 | 139 (active) | 77.3
Gria4 | 1 | 83.8 | 104
Gria4 | 2 | 38.8 | 65.9
Gria4 | 3 | 75.7 | 66.7
Or9s15 | 1 | 75.7 | 76.6
Or9s15 | 2 | 63.2 | 73.9
Or9s15 | 3 | 59.1 | 54.3
Ralgapb | 1 | 39.9 | 30.8
Ralgapb | 2 | 77.6 | 101
Ralgapb | 3 | 127 (active) | 81.8
Golga7 | 1 | 61.9 | 54.9
Golga7 | 2 | 134 (active) | 54.8
Golga7 | 3 | 91 | 79.9
P3h4 | 1 | 98.1 | 100
P3h4 | 2 | 88.1 | 73.5
P3h4 | 3 | 66.7 | 54.9
Tff2 | 1 | 96.3 | 39.2
Tff2 | 2 | 83.3 | 77
Tff2 | 3 | 86 | 53.1
Cd1d2 | 1 | 44.7 | 75.2
Cd1d2 | 2 | 76.8 | 91.8
Cd1d2 | 3 | 70.4 | 60.8
1700084J12Rik | 1 | 81.4 | 53.4
1700084J12Rik | 2 | 143 (active) | 79.2
1700084J12Rik | 3 | 93.5 | 79.4
4932415M13Rik | 1 | 135 (active) | 72.9
4932415M13Rik | 2 | 95.7 | 91.2
4932415M13Rik | 3 | 71.9 | 70.6
Tbpl2 | 1 | 62.2 | 68.7
Tbpl2 | 2 | 88.8 | 70.2
Tbpl2 | 3 | 57.3 | 57.4
Atp6v1g2 | 1 | 84.3 | 85.8
Atp6v1g2 | 2 | 30.1 | 29.3
Atp6v1g2 | 3 | 54.9 | 79
B3gnt3 | 1 | 98.6 | 68.5
B3gnt3 | 2 | 120 | 115
B3gnt3 | 3 | 142 (active) | 104
Dpep3 | 1 | 126 (active) | 92.3
Dpep3 | 2 | 97.7 | 111
Dpep3 | 3 | 106 | 74.6
